Results: the supplement of paper PMC10849652
The list shows a part of the results.

By UniProt entry, the sequences of proteins in these tests, tags left out. Where a name states a change or a piece, a line headed by the entry shows the natural chain unless it says otherwise.
UniProt Q14703: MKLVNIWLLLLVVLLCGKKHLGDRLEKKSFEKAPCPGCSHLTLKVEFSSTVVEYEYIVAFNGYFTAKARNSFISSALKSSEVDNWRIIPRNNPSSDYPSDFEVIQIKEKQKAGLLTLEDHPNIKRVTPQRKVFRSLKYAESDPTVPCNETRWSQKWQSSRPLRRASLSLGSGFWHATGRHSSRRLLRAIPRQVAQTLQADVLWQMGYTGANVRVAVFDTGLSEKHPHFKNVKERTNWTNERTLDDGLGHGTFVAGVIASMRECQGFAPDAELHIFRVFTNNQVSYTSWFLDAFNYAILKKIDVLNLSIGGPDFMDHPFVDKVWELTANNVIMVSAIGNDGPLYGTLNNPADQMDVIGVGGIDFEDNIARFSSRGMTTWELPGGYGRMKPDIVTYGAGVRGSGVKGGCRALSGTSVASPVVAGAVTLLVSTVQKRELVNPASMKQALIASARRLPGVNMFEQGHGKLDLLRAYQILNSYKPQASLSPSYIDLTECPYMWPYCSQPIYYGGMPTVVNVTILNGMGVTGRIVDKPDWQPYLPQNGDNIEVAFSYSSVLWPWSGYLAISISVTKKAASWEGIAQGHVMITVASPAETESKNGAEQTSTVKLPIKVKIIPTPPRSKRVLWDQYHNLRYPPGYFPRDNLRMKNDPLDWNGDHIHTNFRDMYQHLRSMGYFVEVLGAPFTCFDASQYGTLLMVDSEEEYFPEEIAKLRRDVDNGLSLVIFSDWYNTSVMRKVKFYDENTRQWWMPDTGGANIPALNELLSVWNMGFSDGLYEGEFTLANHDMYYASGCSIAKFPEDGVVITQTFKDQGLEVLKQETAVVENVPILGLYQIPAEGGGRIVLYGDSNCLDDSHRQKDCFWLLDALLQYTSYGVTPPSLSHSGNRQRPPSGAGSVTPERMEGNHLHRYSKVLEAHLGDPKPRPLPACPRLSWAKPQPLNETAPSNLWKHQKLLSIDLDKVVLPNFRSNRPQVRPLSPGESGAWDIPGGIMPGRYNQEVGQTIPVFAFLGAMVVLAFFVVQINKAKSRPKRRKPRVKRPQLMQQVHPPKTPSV
UniProt O60244: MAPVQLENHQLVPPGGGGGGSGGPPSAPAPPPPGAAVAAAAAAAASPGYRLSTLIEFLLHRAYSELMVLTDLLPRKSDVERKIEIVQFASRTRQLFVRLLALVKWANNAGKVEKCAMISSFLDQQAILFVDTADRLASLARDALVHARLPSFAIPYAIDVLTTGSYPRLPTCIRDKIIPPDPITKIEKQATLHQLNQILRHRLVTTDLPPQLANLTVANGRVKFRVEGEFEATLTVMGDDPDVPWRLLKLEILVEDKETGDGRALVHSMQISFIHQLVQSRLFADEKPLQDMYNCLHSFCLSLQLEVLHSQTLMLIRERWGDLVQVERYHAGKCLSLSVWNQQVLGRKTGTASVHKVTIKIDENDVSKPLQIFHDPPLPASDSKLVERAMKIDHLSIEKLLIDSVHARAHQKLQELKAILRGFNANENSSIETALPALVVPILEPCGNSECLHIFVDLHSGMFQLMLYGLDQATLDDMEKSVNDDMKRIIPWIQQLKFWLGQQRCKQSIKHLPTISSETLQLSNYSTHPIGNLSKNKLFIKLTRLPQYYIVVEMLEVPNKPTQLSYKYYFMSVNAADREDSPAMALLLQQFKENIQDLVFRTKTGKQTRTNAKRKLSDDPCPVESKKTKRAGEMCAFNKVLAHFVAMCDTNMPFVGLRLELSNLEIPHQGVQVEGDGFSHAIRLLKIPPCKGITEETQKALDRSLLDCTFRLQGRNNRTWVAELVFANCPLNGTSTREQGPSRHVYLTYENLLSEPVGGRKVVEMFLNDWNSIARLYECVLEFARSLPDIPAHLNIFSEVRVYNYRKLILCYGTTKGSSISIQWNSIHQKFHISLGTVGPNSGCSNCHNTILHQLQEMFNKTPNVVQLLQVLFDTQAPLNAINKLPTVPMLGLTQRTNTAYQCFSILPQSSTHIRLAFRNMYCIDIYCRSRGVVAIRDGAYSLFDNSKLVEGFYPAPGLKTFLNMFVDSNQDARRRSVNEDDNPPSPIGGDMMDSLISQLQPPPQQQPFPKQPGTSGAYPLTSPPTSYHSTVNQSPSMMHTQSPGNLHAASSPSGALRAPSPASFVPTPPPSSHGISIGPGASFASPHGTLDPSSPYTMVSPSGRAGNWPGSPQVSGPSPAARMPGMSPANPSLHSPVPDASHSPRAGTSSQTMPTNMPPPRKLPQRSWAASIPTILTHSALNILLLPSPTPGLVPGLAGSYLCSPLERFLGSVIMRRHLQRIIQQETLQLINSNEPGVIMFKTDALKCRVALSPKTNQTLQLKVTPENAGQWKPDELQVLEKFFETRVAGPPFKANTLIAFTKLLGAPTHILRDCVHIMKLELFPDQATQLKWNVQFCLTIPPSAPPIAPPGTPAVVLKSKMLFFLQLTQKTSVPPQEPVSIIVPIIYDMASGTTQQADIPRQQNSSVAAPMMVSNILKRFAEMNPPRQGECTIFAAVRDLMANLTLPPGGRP
UniProt Q14728: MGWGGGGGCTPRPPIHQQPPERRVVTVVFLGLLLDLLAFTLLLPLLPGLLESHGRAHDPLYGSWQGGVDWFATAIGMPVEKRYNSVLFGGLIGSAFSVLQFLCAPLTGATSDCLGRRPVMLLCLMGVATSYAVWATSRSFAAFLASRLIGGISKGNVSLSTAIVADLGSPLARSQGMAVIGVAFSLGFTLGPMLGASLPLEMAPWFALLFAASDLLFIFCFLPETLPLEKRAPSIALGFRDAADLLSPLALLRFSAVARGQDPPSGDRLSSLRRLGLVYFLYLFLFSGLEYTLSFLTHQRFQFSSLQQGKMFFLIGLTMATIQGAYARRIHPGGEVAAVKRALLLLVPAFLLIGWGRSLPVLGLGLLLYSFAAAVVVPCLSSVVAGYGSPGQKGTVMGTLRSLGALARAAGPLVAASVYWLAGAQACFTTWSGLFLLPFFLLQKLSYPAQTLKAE
UniProt Q9BTT4: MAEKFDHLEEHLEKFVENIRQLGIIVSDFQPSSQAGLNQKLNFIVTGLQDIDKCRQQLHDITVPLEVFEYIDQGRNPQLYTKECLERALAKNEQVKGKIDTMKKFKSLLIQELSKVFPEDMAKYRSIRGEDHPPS
UniProt Q14814: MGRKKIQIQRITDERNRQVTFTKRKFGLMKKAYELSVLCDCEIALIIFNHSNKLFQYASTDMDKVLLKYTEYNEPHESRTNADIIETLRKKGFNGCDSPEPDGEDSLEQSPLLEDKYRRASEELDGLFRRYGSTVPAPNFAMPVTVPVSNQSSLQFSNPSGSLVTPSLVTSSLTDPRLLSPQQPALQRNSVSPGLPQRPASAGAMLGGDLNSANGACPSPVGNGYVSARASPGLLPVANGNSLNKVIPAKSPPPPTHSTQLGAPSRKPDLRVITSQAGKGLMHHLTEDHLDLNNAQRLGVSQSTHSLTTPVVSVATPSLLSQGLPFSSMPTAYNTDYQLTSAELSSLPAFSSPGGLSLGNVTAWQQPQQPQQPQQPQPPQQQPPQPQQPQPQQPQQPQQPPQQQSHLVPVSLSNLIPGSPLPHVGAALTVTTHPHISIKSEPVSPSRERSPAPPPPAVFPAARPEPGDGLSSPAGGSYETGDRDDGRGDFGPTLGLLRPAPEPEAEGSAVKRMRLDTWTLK
UniProt Q6P9B6: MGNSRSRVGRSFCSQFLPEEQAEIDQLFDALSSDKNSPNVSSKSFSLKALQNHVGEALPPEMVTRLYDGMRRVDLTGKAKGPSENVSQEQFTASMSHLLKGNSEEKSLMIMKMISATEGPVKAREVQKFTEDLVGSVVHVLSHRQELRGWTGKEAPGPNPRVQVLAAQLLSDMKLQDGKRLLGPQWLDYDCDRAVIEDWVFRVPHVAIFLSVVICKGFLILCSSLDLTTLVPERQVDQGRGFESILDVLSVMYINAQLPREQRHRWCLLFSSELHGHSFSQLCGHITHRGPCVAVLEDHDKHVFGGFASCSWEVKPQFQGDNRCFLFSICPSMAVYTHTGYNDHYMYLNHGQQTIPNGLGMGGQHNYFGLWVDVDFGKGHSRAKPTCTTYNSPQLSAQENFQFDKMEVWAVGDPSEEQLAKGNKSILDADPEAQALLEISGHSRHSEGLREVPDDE
UniProt P55081: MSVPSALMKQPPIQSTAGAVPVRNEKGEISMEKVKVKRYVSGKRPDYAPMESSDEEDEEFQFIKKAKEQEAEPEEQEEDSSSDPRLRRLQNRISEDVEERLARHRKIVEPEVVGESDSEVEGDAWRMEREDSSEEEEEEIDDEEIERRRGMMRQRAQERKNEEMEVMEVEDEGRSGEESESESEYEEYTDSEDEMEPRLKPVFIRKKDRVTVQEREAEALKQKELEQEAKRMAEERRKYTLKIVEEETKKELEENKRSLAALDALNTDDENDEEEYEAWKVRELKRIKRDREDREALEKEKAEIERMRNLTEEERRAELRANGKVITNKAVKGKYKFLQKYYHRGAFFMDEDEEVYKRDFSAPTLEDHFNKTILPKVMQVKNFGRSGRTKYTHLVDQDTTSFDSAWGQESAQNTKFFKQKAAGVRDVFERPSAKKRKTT
UniProt Q8WXB1: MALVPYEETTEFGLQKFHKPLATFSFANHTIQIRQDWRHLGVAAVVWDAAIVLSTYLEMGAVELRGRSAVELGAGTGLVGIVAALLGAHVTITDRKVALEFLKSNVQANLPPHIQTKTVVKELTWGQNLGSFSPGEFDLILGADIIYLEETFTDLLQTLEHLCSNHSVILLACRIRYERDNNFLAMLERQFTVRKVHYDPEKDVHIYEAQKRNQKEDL
UniProt Q68D91: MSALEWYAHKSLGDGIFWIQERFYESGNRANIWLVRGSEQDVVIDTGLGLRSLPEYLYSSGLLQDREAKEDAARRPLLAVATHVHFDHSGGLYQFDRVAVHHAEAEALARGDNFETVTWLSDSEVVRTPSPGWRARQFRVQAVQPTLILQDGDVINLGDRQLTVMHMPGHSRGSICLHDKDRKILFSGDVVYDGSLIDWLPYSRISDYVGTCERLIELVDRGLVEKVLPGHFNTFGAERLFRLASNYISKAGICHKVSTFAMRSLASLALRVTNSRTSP
UniProt Q9HCC0: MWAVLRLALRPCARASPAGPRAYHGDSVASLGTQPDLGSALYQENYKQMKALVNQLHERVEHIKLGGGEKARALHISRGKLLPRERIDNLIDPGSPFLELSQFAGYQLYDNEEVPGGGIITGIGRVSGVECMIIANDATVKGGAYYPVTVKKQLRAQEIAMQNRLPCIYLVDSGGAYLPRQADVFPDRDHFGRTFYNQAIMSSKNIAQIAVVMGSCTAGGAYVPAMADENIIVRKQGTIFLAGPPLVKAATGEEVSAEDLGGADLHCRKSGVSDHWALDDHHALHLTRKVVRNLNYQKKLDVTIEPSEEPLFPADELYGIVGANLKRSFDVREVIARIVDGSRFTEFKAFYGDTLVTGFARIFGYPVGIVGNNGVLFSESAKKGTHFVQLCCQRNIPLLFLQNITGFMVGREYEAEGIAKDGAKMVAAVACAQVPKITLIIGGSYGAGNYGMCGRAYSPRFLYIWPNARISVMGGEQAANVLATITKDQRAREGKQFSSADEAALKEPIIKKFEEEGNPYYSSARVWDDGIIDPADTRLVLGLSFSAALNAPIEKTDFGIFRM
UniProt O75448: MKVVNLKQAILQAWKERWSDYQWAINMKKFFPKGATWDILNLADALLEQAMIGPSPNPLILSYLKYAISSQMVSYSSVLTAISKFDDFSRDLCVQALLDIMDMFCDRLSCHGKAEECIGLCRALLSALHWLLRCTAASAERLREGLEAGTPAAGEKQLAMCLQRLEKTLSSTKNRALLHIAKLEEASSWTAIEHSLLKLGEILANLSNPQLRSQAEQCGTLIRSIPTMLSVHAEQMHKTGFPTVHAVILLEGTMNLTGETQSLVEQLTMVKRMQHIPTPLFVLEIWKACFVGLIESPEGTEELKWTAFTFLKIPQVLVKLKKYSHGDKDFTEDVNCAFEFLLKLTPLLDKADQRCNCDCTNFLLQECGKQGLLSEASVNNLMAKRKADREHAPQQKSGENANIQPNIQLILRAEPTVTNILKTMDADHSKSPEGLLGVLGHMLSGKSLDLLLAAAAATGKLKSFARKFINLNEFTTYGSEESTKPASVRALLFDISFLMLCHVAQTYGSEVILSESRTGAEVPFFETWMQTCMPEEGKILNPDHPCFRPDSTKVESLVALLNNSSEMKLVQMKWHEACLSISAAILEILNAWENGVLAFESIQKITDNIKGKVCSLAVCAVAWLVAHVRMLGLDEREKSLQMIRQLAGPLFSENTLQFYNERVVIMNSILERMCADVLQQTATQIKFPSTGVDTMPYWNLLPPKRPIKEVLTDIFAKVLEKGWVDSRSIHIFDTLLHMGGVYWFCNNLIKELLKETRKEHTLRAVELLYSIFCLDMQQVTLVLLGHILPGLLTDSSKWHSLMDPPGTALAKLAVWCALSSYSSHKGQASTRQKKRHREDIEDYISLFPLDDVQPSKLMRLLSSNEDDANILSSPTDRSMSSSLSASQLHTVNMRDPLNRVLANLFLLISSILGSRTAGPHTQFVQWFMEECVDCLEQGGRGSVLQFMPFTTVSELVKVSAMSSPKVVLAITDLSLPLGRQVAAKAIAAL

Key:
Experiment in all cases: log2 fold change, soluble protein after heating vs DMSO (PISA); higher = thermal stabilisation; K562 cells, 10 uM, 30 min; active = over 0.2 and 3.5 SD of the protein, either way, in both replicates (recomputed)
[1] = compound: NC(=O)Nc1cc(-c2cccc(F)c2)sc1C(=O)N[C@H]1CCCNC1
In short: (§1)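 Thermal stability values are relative to control samples and come from duplicates. They are expressed as log2 fold changes. For measurement, K562 cells (2×10^6 cells/mL) received 10 μM compound for 30 min, and aliquots were heated for 3 min over 48°C-58°C, pooled, and extracted at 4°C in PBS with 0.5% NP-40. Soluble protein, the supernatant after 21,000xg for 90 min, was quantified by TMTpro 16plex LC-MS/MS with equalised channel sums.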

[2] = compound: NC(=O)c1cnc(N[C@@H]2CCCC[C@@H]2N)nc1Nc1cccc(-n2nccn2)c1
In short: as §1

[3] = compound: NC1(c2ccc(-c3nc4ccn5c(=O)[nH]nc5c4cc3-c3ccccc3)cc2)CCC1
In short: as §1

[4] = compound: NCC(=O)Nc1ccc(-n2nc(C(F)(F)F)cc2-c2ccc3c(ccc4ccccc43)c2)cc1
In short: as §1

[5] = compound: Nc1ccccc1NC(=O)c1ccc(CNC(=O)OCc2cccnc2)cc1 [entinostat]
In short: as §1

[6] = compound: O=C(CCCCCCC(=O)Nc1ccccc1)NO [vorinostat]
In short: as §1

[7] = compound: O=C(CCCCCCNC(=O)c1cnc(N(c2ccccc2)c2ccccc2Cl)nc1)NO [citarinostat]
In short: as §1

[8] = compound: O=C(O)c1ccc2c(c1)nc(Nc1cccc(Cl)c1)c1ccncc12 [silmitasertib]
In short: as §1

[9] = compound: O=C1NC(=O)C(c2cnc3ccccn23)=C1c1cn2c3c(cc(F)cc13)CN(C(=O)N1CCCCC1)CC2
In short: as §1

[10] = compound: c1cc(OCCN2CCCCC2)cc(-c2n[nH]c3ccc(-c4nnc[nH]4)cc23)c1
In short: as §1

Measured: log2 fold change

MCM4 (UniProt P33991)
inactive: [1] 0.036 | [2] -0.078 | [3] -0.102 | [4] -0.008 | [5] 0.006 | [6] 0.031 | [7] 0.038 | [8] -0.026 | [9] -0.015 | [10] -0.012

MBTPS1 (UniProt Q14703)
inactive: [1] -0.003 | [2] -0.045 | [3] -0.072 | [4] -0.038 | [5] -0.082 | [6] 0.029 | [7] 0.165 | [8] 0.018 | [9] 0.107 | [10] -0.058

MFSD4B (UniProt Q5TF39)
inactive: [1] 0.167 | [2] 0.116 | [3] 0.145 | [4] 0.097 | [5] -0.106 | [6] 0.033 | [7] 0.016 | [8] -0.099 | [9] -0.126 | [10] -0.045

MGST2 (UniProt Q99735)
inactive: [1] -0.067 | [2] 0.003 | [3] 0.06 | [4] 0.061 | [5] -0.047 | [6] -0.092 | [7] 0.006 | [8] 0.023 | [9] -0.285 | [10] 0.054

MEAF6 isoform 3 (UniProt Q9HAF1)
inactive: [1] -0.035 | [2] 0.049 | [3] 0.125 | [4] -0.099 | [5] -0.035 | [6] 0.082 | [7] 0.04 | [8] -0.006 | [9] 0.105 | [10] -0.155

MED14 (UniProt O60244)
inactive: [1] 0.041 | [2] -0.129 | [3] 0.059 | [4] -0.051 | [5] -0.075 | [6] 0.148 | [7] 0.088 | [8] 0.001 | [9] 0.092 | [10] -0.502

MGST3 (UniProt O14880)
inactive: [1] -0.04 | [2] -0.07 | [3] 0.076 | [4] 0.009 | [5] -0.047 | [6] -0.043 | [7] -0.005 | [8] -0.011 | [9] -0.025 | [10] -0.056

MDN1 (UniProt Q9NU22)
inactive: [1] -0.002 | [2] -0.087 | [3] -0.138 | [4] -0.058 | [5] 0.112 | [6] 0.098 | [7] 0.075 | [8] -0.037 | [9] -0.032 | [10] 0.082

MCFD2 (UniProt Q8NI22)
inactive: [1] 0.075 | [2] 0.359 | [3] 0.043 | [4] 0.178 | [5] 0.044 | [6] -0.114 | [7] -0.008 | [8] 0.008 | [9] -0.197 | [10] -0.035

MFSD10 (UniProt Q14728)
inactive: [1] 0.008 | [2] 0.03 | [3] 0.021 | [4] -0.034 | [5] -0.124 | [6] -0.144 | [7] 0.036 | [8] 0.024 | [9] 0.028 | [10] 0.025

MIA3 (UniProt Q5JRA6)
inactive: [1] -0.008 | [2] -0.008 | [3] -0.02 | [4] -0.002 | [5] 0.006 | [6] -0.014 | [7] 0.013 | [8] 0.043 | [9] -0.061 | [10] -0.027

MGAT4B isoform 3 (UniProt Q9UQ53)
inactive: [1] -0.085 | [2] 0.027 | [3] -0.025 | [4] 0.032 | [5] 0.012 | [6] 0 | [7] -0.058 | [8] 0.262 | [9] -0.069 | [10] -0.003

MGAT2 (UniProt Q10469)
inactive: [1] 0.035 | [2] -0.038 | [3] -0.007 | [4] -0.026 | [5] -0.009 | [6] 0.004 | [7] -0.023 | [8] -0.024 | [9] 0.012 | [10] -0.034

MCRIP1 (UniProt I3L4Q0)
inactive: [1] -0.047 | [2] -0.052 | [3] 0.039 | [4] -0.127 | [5] 0.029 | [6] 0.006 | [7] 0.016 | [8] 0.012 | [9] -0.011 | [10] -0.013

MED10 (UniProt Q9BTT4)
inactive: [1] -0.089 | [2] 0.05 | [3] 0.102 | [4] -0.026 | [5] 0.098 | [6] -0.073 | [7] -0.003 | [8] 0.043 | [9] 0.021 | [10] -0.112

MEF2D (UniProt Q14814)
inactive: [1] -0.058 | [2] 0.003 | [3] -0.041 | [4] -0.058 | [5] -0.031 | [6] -0.06 | [7] 0.057 | [8] -0.006 | [9] -0.058 | [10] -0.143

MAZ isoform 2 (UniProt P56270)
inactive: [1] 0.097 | [2] 0.177 | [3] 0.106 | [4] -0.001 | [5] 0.003 | [6] -0.023 | [7] -0.043 | [8] 0.013 | [9] 0.076 | [10] -0.112

MEAK7 (UniProt Q6P9B6)
inactive: [1] -0.011 | [2] -0.117 | [3] -0.122 | [4] -0.025 | [5] 0.027 | [6] 0.069 | [7] 0.053 | [8] -0.028 | [9] -0.021 | [10] 0.016

MED1 (UniProt Q15648)
inactive: [1] 0.027 | [2] -0.064 | [3] 0.002 | [4] -0.113 | [5] -0.018 | [6] 0.05 | [7] -0.001 | [8] -0.002 | [9] 0.063 | [10] -0.124

MFAP1 (UniProt P55081)
inactive: [1] -0.021 | [2] 0.014 | [3] 0.04 | [4] 0.13 | [5] -0.077 | [6] -0.03 | [7] -0.026 | [8] -0.007 | [9] -0.069 | [10] -0.028

METTL21A (UniProt Q8WXB1)
inactive: [1] 0.1 | [2] 0.023 | [3] -0.045 | [4] 0.056 | [5] -0.021 | [6] -0.021 | [7] 0.074 | [8] 0.031 | [9] -0.024 | [10] -0.149

MBLAC2 (UniProt Q68D91)
inactive: [1] 0.007 | [2] -0.003 | [3] 0.01 | [4] -0.048 | [5] -0.041 | [6] 0.03 | [7] 0.023 | [8] 0.002 | [9] -0.034 | [10] -0.031

MCL1 (UniProt Q07820)
inactive: [1] -0.074 | [2] -0.33 | [3] -0.093 | [4] -0.039 | [5] 0.072 | [6] 0.011 | [7] -0.079 | [8] 0.034 | [9] -0.112 | [10] 0.142

MAVS (UniProt Q7Z434)
inactive: [1] 0.014 | [2] 0.012 | [3] -0.035 | [4] 0.038 | [5] -0.002 | [6] -0.014 | [7] 0.045 | [8] -0.017 | [9] -0.005 | [10] -0.012

Looked up one by one from above, 2 records:
MCL1 (UniProt Q07820)
inactive: [1] -0.074 | [2] -0.33 | [3] -0.093 | [4] -0.039 | [5] 0.072 | [6] 0.011 | [7] -0.079 | [8] 0.034 | [9] -0.112 | [10] 0.142

MFAP1 (UniProt P55081)
inactive: [1] -0.021 | [2] 0.014 | [3] 0.04 | [4] 0.13 | [5] -0.077 | [6] -0.03 | [7] -0.026 | [8] -0.007 | [9] -0.069 | [10] -0.028

Continuation:

METTL18 (UniProt O95568)
inactive: [1] -0.028 | [2] 0.008 | [3] -0.034 | [4] 0.023 | [5] -0.02 | [6] 0.041 | [7] -0.046 | [8] 0.03 | [9] 0 | [10] -0.016

MEA1 (UniProt Q16626)
inactive: [1] -0.003 | [2] 0.097 | [3] -0.113 | [4] 0.026 | [5] 0.004 | [6] -0.095 | [7] 0.112 | [8] 0.031 | [9] -0.1 | [10] 0.031

MCCC2 (UniProt Q9HCC0)
inactive: [1] 0.047 | [2] -0.014 | [3] 0.036 | [4] 0.06 | [5] 0.005 | [6] -0.043 | [7] 0.083 | [8] 0.025 | [9] 0.006 | [10] -0.024

MFSD1 isoform 6 (UniProt Q9H3U5)
active: [3] -0.308
inactive: [1] 0.02 | [2] -0.066 | [4] -0.098 | [5] -0.019 | [6] -0.053 | [7] 0.03 | [8] -0.008 | [9] 0.067 | [10] 0.043

MGAT1 (UniProt P26572)
inactive: [1] -0.005 | [2] 0.036 | [3] -0.01 | [4] -0.051 | [5] -0.001 | [6] 0.068 | [7] -0.028 | [8] -0.012 | [9] 0.019 | [10] -0.065

MED24 (UniProt O75448)
inactive: [1] 0.089 | [2] -0.088 | [3] -0.016 | [4] -0.037 | [5] 0.012 | [6] 0.056 | [7] -0.007 | [8] 0.069 | [9] 0.025 | [10] -0.076
